Results from patent US7812015B2, “Prophylaxis and treatment of infectious diseases” (priority 2002, dated 2010).
Some of these results come from one statement about several compounds together. At least one compound was matched to its structure with a doubt left.

Target: T1, acid sphingomyelinase (Homo sapiens, UniProt P17405)
T1 sequence (P17405 47-631): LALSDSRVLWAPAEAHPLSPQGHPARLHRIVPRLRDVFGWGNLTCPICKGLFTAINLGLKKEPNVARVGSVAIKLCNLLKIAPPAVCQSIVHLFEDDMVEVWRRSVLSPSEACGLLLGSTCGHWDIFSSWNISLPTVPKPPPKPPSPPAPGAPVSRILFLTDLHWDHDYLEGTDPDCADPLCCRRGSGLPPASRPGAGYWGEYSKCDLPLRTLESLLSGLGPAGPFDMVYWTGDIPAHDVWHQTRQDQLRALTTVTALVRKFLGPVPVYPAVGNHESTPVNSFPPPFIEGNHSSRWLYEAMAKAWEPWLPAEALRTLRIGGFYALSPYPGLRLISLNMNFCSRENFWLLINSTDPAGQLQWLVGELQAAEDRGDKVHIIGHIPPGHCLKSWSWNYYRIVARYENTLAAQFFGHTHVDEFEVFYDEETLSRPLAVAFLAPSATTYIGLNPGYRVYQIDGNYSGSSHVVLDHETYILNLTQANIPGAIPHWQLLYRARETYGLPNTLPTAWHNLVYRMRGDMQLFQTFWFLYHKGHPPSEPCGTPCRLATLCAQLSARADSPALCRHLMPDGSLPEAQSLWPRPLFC
Test: Block of acid sphingomyelinase activity in control experiments
Type: cell-based
Settings: within 20 min

CN(C)CCC=C1c2ccccc2CCc2ccccc21 [amitryptiline] was tested, and the “block of acid sphingomyelinase activity” value was “up to 98%”.
